Among the data in US4277394 (dated 1981) are step yield values, retold here.

[ ]: non-standard residue; d: D form. The star is where a group is joined. Cbz = O=C(OCc1ccccc1)*; NHNH2 = NN*

One data set is described as follows: general procedure: solution-phase peptide synthesis; DCC/HONB; DCC/HOBT. As to conditions: coupling step.
The substance “Z-MeTyr(Bu^t)-(D)-Ala-Gly-MePhe-NH-NH-CO-CH2 -CH3” had a step yield of 86%.

“Z-Tyr-(D)-Ala-Gly-Phe-NH-NH-CO-CH2 -CH2 -CH3” showed a step yield of 50%. Substance “Z-Tyr-(D)-Ala-Gly-Phe-NH-NH-CO-CH2 -CH2 -NH-Z.” came in with a step yield of 56%. Regarding Z-Tyr-(D)-Leu-Gly-Phe-NH-NH-CO-CH3, the step yield worked out at 74%. In turn, Cbz-Y[dL]GF-OMe yielded a step yield of 89%. As to Z-Tyr-(D)-Ala-Gly-MePhe-OCH3, the step yield is listed as 56%.

“BOC-Tyr-(D)-Met(O)-Gly-Phe-NH-NH-CO-CH2 -CH3” showed a step yield of 72%. Same read-out and setting: the figure for Z-Tyr-(D)-Ala-Gly-Phe-NH-NH-BOC is 67%; for “Z-Tyr-(D)-Ala-Gly-Phe-NH-NH-CO-OCH2 -CH3” it is 93%.

The same data set, now with this note: late stage modification step.
With “Z-Tyr-(D)-Ala-Gly-Phe-NH-NH-CO-CH2 -CH(CH3)2”, the step yield is reported as 53%. On to H-Y[dL]GF-NHNH2, for which the step yield came out at 60%. Same read-out and setting: the figure for Cbz-Y[dL]GF-NHNH2 is 80%; for “H-Tyr-(D)-Ala-Gly-Phe-NH-NH-CO-CH2 -CH2 -OH” it is 40%.

Regarding “H-Tyr-(D)-Ala-Gly-Phe-NH-NH-CO-CH2 -CH2 -NH2”, the step yield came out at 61%. H-Tyr-(D)-Ala-Gly-MePhe-NH-NH2 returned a step yield of 52%. As to H-Tyr-(D)-Leu-Gly-Phe-NH-NH-CO-CH3, the step yield is on record as 50%. “Z-Tyr-(D)-Ala-Gly-Phe-NH-NH-CO-(CH2)3 -CH3” came in with a step yield of 70%. In turn, “H-Tyr-(D)-Ala-Gly-Phe-NH-NH-CO-(CH2)2 -Cl” displayed a step yield of 60%.

With H-Tyr-(D)-Ala-Gly-Phe-NH-NH2, the step yield worked out at 38%. Turning to “Z-Tyr-(D)-Ala-Gly-MePhe-NH-NH-CO-CH2 -CH2 -O-CH2 -CH3”, the step yield amounted to 73%. Turning to “Z-Tyr-(D)-Ala-Gly-MePhe-NH-NH-CO-CH2 -CH(CH3)2”, the step yield is 82%. The same measure, in the same setting: the figure for “Z-Tyr-(D)-Ala-Gly-MePhe-NH-NH-CO-CH2 -CH2 -CO-CH3” is 70%; for H-Tyr-(D)-Ala-Gly-Phe-NH-NH-CO-CH2 -CH3 it is 52%; for “H-Tyr-(D)-Ala-Gly-Phe-NH-NH-CO-OCH2 -CH3” it is 53%. In the case of “Z-Tyr-(D)-Ala-Gly-MePhe-NH-NH-CO-CH(OH)-CH3”, the step yield is given as 81%. As for “H-Tyr-(D)-Ala-Gly-Phe-NH-NH-CO-CH2 -CH(CH3)2”, the step yield is given as 62%. For Z-Tyr-(D)-Ala-Gly-Phe-NH-NH-CO-CH2 -CH3, the step yield is given as 65%. “H-Tyr-(D)-Ala-Gly-Phe-NH-NH-CO-CH2 CH2 CH3” gave a step yield of 44%.

Take “Z-Tyr-(D)-Ala-Gly-Phe-NH-NH-CO-CH2 -CH2 -OH”: the step yield was 53%. Same read-out and setting: the figure for “Z-Tyr-(D)-Ala-Gly-Phe-NH-NH-CO-(CH2)2 -Cl” is 59%; for “Z-Tyr-(D)-Ala-Gly-MePhe-NH-NH-CO-CH2 -CH2 -CH3” it is 83%; for “Z-Tyr-(D)-Ala-Gly-MePhe-NH-NH-CO-O-CH2 -CH3” it is 73%. On to “Z-Tyr-(D)-Ala-Gly-MePhe-NH-NH-CO-CH2 -CH2 -CH2 -CH3”, for which the step yield is on record as 82%. As to Z-Tyr-(D)-Ala-Gly-Phe-NH-NH2, the step yield is on record as 96%. In turn, “Z-Tyr-(D)-Ala-Gly-MePhe-NH-NH-CO-CH2 -CH2 -Cl” yielded a step yield of 85%.

In turn, “H-Tyr-(D)-Ala-Gly-Phe-NH-NH-CO-(CH2)3 -CH3” showed a step yield of 56%.

Z-Tyr-(D)-Ala-Gly-MePhe-NH-NH2 gave a step yield of 82%. Substance “Z-Tyr-(D)-Ala-Gly-MePhe-NH-NH-CO-CH2 -CH3” gave a step yield of 87%.
